The source of these data is paper PMC9226014.

By UniProt entry, the sequences of proteins in these tests, tags left out. Where a name states a change or a piece, a line headed by the entry shows the natural chain unless it says otherwise.
UniProt Q9Y572: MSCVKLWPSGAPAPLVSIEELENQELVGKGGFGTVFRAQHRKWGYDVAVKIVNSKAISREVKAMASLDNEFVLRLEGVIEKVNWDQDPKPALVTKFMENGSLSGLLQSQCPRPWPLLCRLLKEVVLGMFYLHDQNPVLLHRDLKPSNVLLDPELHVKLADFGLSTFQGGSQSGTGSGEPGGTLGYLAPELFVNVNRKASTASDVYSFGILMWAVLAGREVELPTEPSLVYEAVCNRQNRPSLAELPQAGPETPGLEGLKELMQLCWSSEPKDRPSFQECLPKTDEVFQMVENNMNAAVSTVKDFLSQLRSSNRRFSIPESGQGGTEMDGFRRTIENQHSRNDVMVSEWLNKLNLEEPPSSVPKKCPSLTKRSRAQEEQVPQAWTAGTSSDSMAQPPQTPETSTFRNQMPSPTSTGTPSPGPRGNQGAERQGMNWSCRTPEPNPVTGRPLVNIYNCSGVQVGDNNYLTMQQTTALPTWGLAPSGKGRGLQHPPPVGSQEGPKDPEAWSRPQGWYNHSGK
UniProt Q13158: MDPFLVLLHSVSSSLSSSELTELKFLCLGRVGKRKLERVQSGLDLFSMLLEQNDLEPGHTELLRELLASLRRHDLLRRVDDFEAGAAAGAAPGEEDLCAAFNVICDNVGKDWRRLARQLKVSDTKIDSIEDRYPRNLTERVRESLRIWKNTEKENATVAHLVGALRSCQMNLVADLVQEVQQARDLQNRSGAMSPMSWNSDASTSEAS
UniProt Q9Y6K9: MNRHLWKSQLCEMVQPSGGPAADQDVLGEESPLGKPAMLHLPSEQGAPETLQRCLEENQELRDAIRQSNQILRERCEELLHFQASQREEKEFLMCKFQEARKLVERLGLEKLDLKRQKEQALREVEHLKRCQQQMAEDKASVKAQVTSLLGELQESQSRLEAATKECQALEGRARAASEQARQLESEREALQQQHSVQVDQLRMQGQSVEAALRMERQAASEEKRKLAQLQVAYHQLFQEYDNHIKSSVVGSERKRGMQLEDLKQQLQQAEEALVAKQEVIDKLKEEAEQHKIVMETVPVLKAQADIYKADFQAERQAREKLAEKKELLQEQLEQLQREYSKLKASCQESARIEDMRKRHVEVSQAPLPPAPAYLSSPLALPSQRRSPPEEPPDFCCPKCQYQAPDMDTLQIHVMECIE
UniProt Q13546: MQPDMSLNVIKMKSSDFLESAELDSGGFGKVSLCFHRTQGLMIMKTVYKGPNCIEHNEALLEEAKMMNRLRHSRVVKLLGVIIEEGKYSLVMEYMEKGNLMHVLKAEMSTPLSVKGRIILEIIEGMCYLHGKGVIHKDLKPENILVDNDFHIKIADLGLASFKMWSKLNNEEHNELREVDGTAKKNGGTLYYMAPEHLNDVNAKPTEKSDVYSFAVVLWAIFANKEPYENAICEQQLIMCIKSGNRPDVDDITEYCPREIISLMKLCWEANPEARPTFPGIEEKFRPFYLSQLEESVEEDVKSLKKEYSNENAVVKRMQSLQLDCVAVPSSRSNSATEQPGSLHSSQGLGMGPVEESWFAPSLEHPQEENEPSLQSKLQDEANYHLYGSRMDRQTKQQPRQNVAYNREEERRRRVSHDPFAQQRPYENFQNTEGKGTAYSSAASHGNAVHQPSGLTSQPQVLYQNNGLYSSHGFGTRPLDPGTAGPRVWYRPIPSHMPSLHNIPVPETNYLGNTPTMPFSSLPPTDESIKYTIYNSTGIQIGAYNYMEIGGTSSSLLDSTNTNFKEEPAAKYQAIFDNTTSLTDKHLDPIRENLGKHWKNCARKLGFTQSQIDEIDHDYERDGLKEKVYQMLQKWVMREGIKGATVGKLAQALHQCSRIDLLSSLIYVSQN

Results are given in words; binding and its absence hold for the method and conditions named. In cells and extracts the contact can be indirect. A yes stands for co-enrichment or nearness to the bait. Other partners may have been found. For some of these results: No binding means not detected with the bait.

Assay [1] concerns the target wild-type human RIPK3 with an N-terminal FLAG tag (human) (UniProt Q9Y572). Kind of assay: affinity purification with mass spectrometry; FLAG-RIPK3 (wild type or D142N) precipitated on anti-FLAG M2 Affinity Gel from lysates of RIPK3-/- HT29 cells induced with 500 ng/mL doxycycline overnight, without or with TSI (TNF, Smac mimetic Compound A, IDN-6556) for 3 h; lysis buffer 50 mM Tris-HCl pH 7.4, 1% Triton X-100, 150 mM NaCl, 1 mM EDTA; 1 h at 4 C; eluted with FLAG peptide; five replicates.

The target of assay [2] is kinase-inactive D142N mutant human RIPK3 with an N-terminal FLAG tag (human) (UniProt Q9Y572). Described as above.
Assay [3] has as its target wild-type human RIPK3 with an N-terminal FLAG tag (human) (UniProt Q9Y572). Kind of assay: condition: only at steady state (doxycycline only, without TSI); affinity purification with mass spectrometry; as a1, at steady state only: cells induced with doxycycline, not treated with TSI.
The target in assay [4] is kinase-inactive D142N mutant human RIPK3 with an N-terminal FLAG tag (human) (UniProt Q9Y572). The assay can be described thus: affinity purification with mass spectrometry; as a1, at steady state only: cells induced with doxycycline, not treated with TSI.
Assay [5] has as its target wild-type human RIPK3 with an N-terminal FLAG tag (human) (UniProt Q9Y572). The assay can be described thus: affinity purification with mass spectrometry; FLAG-RIPK3 (wild type or D142N) precipitated on anti-FLAG M2 Affinity Gel from lysates of RIPK3-/- HT29 cells induced with 500 ng/mL doxycycline overnight, without or with TSI (TNF, Smac mimetic Compound A, IDN-6556) for 3 h; lysis buffer 50 mM Tris-HCl pH 7.4, 1% Triton X-100, 150 mM NaCl, 1 mM EDTA; 1 h at 4 C; eluted with FLAG peptide; five replicates. The source holds these as a separate data set.

Regarding FADD (from UniProt Q13158 1-208), the binding entry in assay [1] and in assay [2] was “binds” throughout.
As for “IKBKG (NEMO) (from UniProt Q9Y6K9 1-419)”, the binding entry in assay [1] and in assay [2] was “binds” throughout.
On to “receptor-interacting serine/threonine protein kinase 1 (RIPK1) (from UniProt Q13546 1-671)”, for which the binding entry in assay [3] is “no binding”; in assay [1] it was “binds”; in assay [2], “binds”; in assay [4], “binds”.

B1: CEMIP (protein, UniProt Q8WUJ3 31-1361)
chain: TVAAGCPDQSPELQPWNPGHDQDHHVHIGQGKTLLLTSSATVYSIHISEGGKLVIKDHDEPIVLRTRHILIDNGGELHAGSALCPFQGNFTIILYGRADEGIQPDPYYGLKYIGVGKGGALELHGQKKLSWTFLNKTLHPGGMAEGGYFFERSWGHRGVIVHVIDPKSGTVIHSDRFDTYRSKKESERLVQYLNAVPDGRILSVAVNDEGSRNLDDMARKAMTKLGSKHFLHLGFRHPWSFLTVKGNPSSSVEDHIEYHGHRGSAAARVFKLFQTEHGEYFNVSLSSEWVQDVEWTEWFDHDKVSQTKGGEKISDLWKAHPGKICNRPIDIQATTMDGVNLSTEVVYKKGQDYRFACYDRGRACRSYRVRFLCGKPVRPKLTVTIDTNVNSTILNLEDNVQSWKPGDTLVIASTDYSMYQAEEFQVLPCRSCAPNQVKVAGKPMYLHIGEEIDGVDMRAEVGLLSRNIIVMGEMEDKCYPYRNHICNFFDFDTFGGHIKFALGFKAAHLEGTELKHMGQQLVGQYPIHFHLAGDVDERGGYDPPTYIRDLSIHHTFSRCVTVHGSNGLLIKDVVGYNSLGHCFFTEDGPEERNTFDHCLGLLVKSGTLLPSDRDSKMCKMITEDSYPGYIPKPRQDCNAVSTFWMANPNNNLINCAAAGSEETGFWFIFHHVPTGPSVGMYSPGYSEHIPLGKFYNNRAHSNYRAGMIIDNGVKTTEASAKDKRPFLSIISARYSPHQDADPLKPREPAIIRHFIAYKNQDHGAWLRGGDVWLDSCRFADNGIGLTLASGGTFPYDDGSKQEIKNSLFVGESGNVGTEMMDNRIWGPGGLDHSGRTLPIGQNFPIRGIQLYDGPINIQNCTFRKFVALEGRHTSALAFRLNNAWQSCPHNNVTGIAFEDVPITSRVFFGEPGPWFNQLDMDGDKTSVFHDVDGSVSEYPGSYLTKNDNWLVRHPDCINVPDWRGAICSGCYAQMYIQAYKTSNLRMKIIKNDFPSHPLYLEGALTRSTHYQQYQPVVTLQKGYTIHWDQTAPAELAIWLINFNKGDWIRVGLCYPRGTTFSILSDVHNRLLKQTSKTGVFVRTLQMDKVEQSYPGRSHYYWDEDSGLLFLKLKAQNEREKFAFCSMKGCERIKIKALIPKNAGVSDCTATAYPKFTERAVVDVPMPKKLFGSQLKTKDHFLEVKMESSKQHFFHLWNDFAYIEVDGKKYPSSEDGIQVVVIDGNQGRVVSHTSFRNSILQGIPWQLFNYVATIPDNSIVLMASKGRYVSRGPWTRVLEKLGADRGLKLKEQMAFVGFKGSFRPIWVTLDTEDHKAKIFQVVPIPVVKKKKL
For the molecule B1, the binding result in assay [5] is listed as “binds”.

B2: ABCD3 (protein, UniProt P28288 1-659)
chain: MAAFSKYLTARNSSLAGAAFLLLCLLHKRRRALGLHGKKSGKPPLQNNEKEGKKERAVVDKVFFSRLIQILKIMVPRTFCKETGYLVLIAVMLVSRTYCDVWMIQNGTLIESGIIGRSRKDFKRYLLNFIAAMPLISLVNNFLKYGLNELKLCFRVRLTKYLYEEYLQAFTYYKMGNLDNRIANPDQLLTQDVEKFCNSVVDLYSNLSKPFLDIVLYIFKLTSAIGAQGPASMMAYLVVSGLFLTRLRRPIGKMTITEQKYEGEYRYVNSRLITNSEEIAFYNGNKREKQTVHSVFRKLVEHLHNFILFRFSMGFIDSIIAKYLATVVGYLVVSRPFLDLSHPRHLKSTHSELLEDYYQSGRMLLRMSQALGRIVLAGREMTRLAGFTARITELMQVLKDLNHGKYERTMVSQQEKGIEGVQVIPLIPGAGEIIIADNIIKFDHVPLATPNGDVLIRDLNFEVRSGANVLICGPNGCGKSSLFRVLGELWPLFGGRLTKPERGKLFYVPQRPYMTLGTLRDQVIYPDGREDQKRKGISDLVLKEYLDNVQLGHILEREGGWDSVQDWMDVLSGGEKQRMAMARLFYHKPQFAILDECTSAVSVDVEGYIYSHCRKVGITLFTVSHRKSLWKHHEYYLHMDGRGNYEFKQITEDTVEFGS
As for B2, in assay [5], the binding result is reported as “binds”.
